Structures can show the parent of a compound that is named as a salt. This is one part of the list. Single values of this set are uncertain.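 Yeast growth was read as optical density at 600 nm. The two-hybrid strains grew without histidine, so growth needed the Pex3–Pex19 binding; a compound counted as trypanosome-selective if it cut growth of the trypanosome-pair strain by more than 65% and the human-pair strain by less than 65%.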
tested on: human PEX3-PEX19 interaction (yeast two-hybrid); assay: growth inhibition of yeast two-hybrid strain reporting HsPex3-HsPex19 interaction, relative to DMSO; higher = stronger inhibition of human Pex3-Pex19 interaction / growth; settings: 100 µM; 24 h; 3-aminotriazole 10 mM

SMILES | growth inhibition [%]
CC(=O)O[C@H]1C[C@@H]2CC[C@@H]3[C@H](CC[C@@]4(C)[C@H]3C[C@H]([N+]3(C)CCCCC3)[C@@H]4OC(C)=O)[C@@]2(C)C[C@@H]1[N+]1(C)CCCCC1 [Pancuronium bromide] | 46.4
O=c1ccc2[nH]cc(C3=CCNCC3)c2[nH]1 | -6.2
Cc1c2ccncc2c(C)c2c1[nH]c1ccccc12 [Ellipticine] | 84.2
COc1cc(C(O)CN)ccc1O (racemic) [(±)-Normetanephrine hydrochloride] | 40.5
CCCN1CCC[C@@H](c2cccc(O)c2)C1 [S(-)-3PPP hydrochloride] | 47.4

tested on: T. brucei Pex3-Pex19 interaction (yeast two-hybrid); assay: growth inhibition of yeast two-hybrid strain reporting TbPex3-TbPex19 interaction, relative to DMSO; higher = stronger inhibition of T. brucei Pex3-Pex19 interaction / growth; settings: 100 µM; 24 h

SMILES | growth inhibition [%]
Fc1ccc(C(OCCN2CCN(CCCc3ccccc3)CC2)c2ccc(F)cc2)cc1 | 20.4
C#CCN[C@H](C)Cc1ccccc1 [R-(-)-Desmethyldeprenyl hydrochloride] | 52.3
CC(C)N(CCC(C(N)=O)(c1ccccc1)c1ccccn1)C(C)C (stereo not given) [Disopyramide] | 33.9
CP(=O)(O)C1=CCNCC1 | 55.5
c1ccc2c(c1)OCC(C1=NCCN1)O2 (stereo not given) [Idazoxan hydrochloride] | 62.1
NCCc1ccc(O)cc1 [4-Hydroxyphenethylamine hydrochloride] | 72.7
O=C1CCCN1CC#CCN1CCCC1 [Oxotremorine sesquifumarate salt] | 69.6
CC(N)c1cccc(Cl)c1Cl (racemic) [(±)-2,3-Dichloro-alpha-methylbenzylamine hydrochloride] | 51.9
CC(=O)[C@H]1CC[C@H]2[C@@H]3CC[C@H]4C[C@](C)(O)CC[C@]4(C)[C@H]3CC[C@]12C [Ganaxolone] | 54
CN1[C@@H]2CC[C@H]1C[C@@H](OC(=O)C(CO)c1ccccc1)C2 (stereo not given in full) [Atropine sulfate] | 65.1
C[N+](C)(C)CC#CCOC(=O)Nc1cccc(Cl)c1 | 67.9
CCCN(CCC)C1CCc2ccc(O)cc2C1 (racemic) [(±)-7-Hydroxy-DPAT hydrobromide] | 67.1
COc1ccc2c(c1O)-c1cccc3c1[C@@H](C2)N(C)CC3 [R(-)-Apocodeine hydrochloride] | 55.7
CN1[C@@H]2C[C@@H](OC(=O)[C@H](CO)c3ccccc3)C[C@H]1[C@H](O)C2 (racemic) [(+/-)-Anisodamine] | 60.4
NNC(N)=O [Semicarbazide hydrochloride] | 69.5
COC(=O)[C@@H](N)CCCNC(=N)N[N+](=O)[O-] [NG-Nitro-L-arginine methyl ester hydrochloride] | 71.2
CN1C(=O)CCS(=O)(=O)C1c1ccc(Cl)cc1 (stereo not given) [Chlormezanone] | 55
NC(=O)COc1c(F)cc(SCCNS(=O)(=O)c2ccccc2)cc1F | 60.5
COc1cc2c(c(OC)c1OC)-c1ccc(OC)c(=O)cc1[C@@H](NC(C)=O)CC2 [Colchicine] | 59.8
COc1ccc2[nH]cc(CCN)c2c1 [O-Methylserotonin hydrochloride] | 68.1
CN1C[C@H](CNC(=O)OCc2ccccc2)C[C@@H]2c3cccc4c3c(cn4C)C[C@H]21 [Metergoline] | 24.9
CNCCc1c[nH]c2ccc(O)cc12 [N-omega-Methyl-5-hydroxytryptamine oxalate salt] | 68.6
COc1ccc2c(c1)[C@]13CCCC[C@@H]1[C@H](C2)N(C)CC3 [Dextromethorphan hydrobromide monohydrate] | 55.6
C#C[C@]1(O)CC[C@H]2[C@@H]3CCC4=Cc5nc6nc7ccccc7n6cc5C[C@]4(C)[C@H]3CC[C@@]21C | 49.9
NC(CCP(=O)(O)O)C(=O)O (racemic) [(±)-2-Amino-4-phosphonobutyric acid] | 56
O=S1(=O)N(CCN2CC=C(c3c[nH]c4cc(F)ccc34)CC2)c2cccc3c2N1CCC3 | 28.6
COc1ccc2[nH]c3c(c2c1)CCNC3 [6-Methoxy-1,2,3,4-tetrahydro-9H-pyrido[3,4b] indole] | 31
O=[N+]([O-])c1cc(O)c(O)c([N+](=O)[O-])c1 [3,5-Dinitrocatechol] | 47.7
CN[C@@H]1C[C@@H](c2ccc(Cl)c(Cl)c2)c2ccccc21 [Indatraline hydrochloride] | 61.1
CC(C)=CCOc1c2occc2cc2ccc(=O)oc12 [Imperatorin] | 29.9

Three structures out of the list, sorted by SMILES length, ascending:
SMILES | growth inhibition [%]
NCCc1ccc(O)cc1 [4-Hydroxyphenethylamine hydrochloride] | 72.7
CP(=O)(O)C1=CCNCC1 | 55.5
CN1[C@@H]2CC[C@H]1C[C@@H](OC(=O)C(CO)c1ccccc1)C2 (stereo not given in full) [Atropine sulfate] | 65.1
